According to PMC7953756:
Results are given in words; binding and its absence hold for the method and conditions named. Binding seen in cells or lysates may run through a third protein. Some results given as binding are weak or reduced against the parent protein; the word gives no strength.

Amino acid sequences for entries named in this document (tags omitted). Residues count along the entry.
UniProt P10721, residues 26-976: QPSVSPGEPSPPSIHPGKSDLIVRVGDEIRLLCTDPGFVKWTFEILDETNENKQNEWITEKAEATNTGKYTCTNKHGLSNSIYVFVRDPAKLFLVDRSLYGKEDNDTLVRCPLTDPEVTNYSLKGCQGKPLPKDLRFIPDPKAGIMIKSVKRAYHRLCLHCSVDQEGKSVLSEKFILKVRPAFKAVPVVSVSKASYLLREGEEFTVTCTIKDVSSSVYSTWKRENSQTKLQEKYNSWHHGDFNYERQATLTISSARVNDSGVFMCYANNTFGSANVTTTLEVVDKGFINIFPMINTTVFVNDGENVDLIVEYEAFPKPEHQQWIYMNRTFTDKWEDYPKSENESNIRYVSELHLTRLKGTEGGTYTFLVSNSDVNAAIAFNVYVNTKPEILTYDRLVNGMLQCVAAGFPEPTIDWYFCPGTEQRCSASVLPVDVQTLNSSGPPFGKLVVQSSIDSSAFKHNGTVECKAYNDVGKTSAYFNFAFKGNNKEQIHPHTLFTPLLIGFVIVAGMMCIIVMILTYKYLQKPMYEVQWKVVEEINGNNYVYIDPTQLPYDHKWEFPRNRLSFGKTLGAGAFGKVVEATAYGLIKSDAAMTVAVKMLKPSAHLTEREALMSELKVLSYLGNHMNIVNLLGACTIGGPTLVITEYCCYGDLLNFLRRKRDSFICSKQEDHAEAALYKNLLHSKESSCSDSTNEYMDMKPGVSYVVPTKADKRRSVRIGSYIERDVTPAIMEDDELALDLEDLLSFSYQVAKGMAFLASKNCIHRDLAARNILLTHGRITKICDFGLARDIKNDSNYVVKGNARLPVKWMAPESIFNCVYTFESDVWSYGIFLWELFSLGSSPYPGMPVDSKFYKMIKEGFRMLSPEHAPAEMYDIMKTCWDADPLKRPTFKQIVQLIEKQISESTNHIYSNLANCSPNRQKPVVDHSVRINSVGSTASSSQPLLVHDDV

T1: suppressor of cytokine signaling 6 (SOCS6) (human (endogenous in Eca109)) (UniProt O14544)
T1 sequence: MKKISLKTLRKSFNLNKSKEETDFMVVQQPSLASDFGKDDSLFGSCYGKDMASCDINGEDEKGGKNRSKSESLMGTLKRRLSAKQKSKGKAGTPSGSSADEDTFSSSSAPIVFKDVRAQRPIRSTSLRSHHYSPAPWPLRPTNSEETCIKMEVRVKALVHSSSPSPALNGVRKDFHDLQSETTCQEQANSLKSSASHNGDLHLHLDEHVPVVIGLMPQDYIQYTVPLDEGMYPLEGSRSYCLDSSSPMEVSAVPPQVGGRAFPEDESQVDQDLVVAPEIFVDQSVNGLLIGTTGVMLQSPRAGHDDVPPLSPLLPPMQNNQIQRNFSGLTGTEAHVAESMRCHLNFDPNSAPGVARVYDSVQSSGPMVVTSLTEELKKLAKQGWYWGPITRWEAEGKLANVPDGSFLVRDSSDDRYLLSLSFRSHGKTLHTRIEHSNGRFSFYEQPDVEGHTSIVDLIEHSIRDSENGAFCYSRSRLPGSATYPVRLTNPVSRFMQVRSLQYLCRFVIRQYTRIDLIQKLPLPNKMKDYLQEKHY


What was measured:
[1] = molecular target: T1, suppressor of cytokine signaling 6 (SOCS6) (human (endogenous in Eca109)); assay: co-IP; reverse direction: IP of SOCS6 from Eca109 cells, Western blot for c-Kit; details of this IP not told
[2] = molecular target: stem cell factor receptor c-Kit (human (endogenous in Eca109)) (UniProt P10721); assay: co-IP; Eca109 cells lysed in ice-cold RIPA buffer, pre-cleared with normal rabbit IgG; IP with rabbit monoclonal anti-c-Kit antibody and Protein A/G PLUS-Agarose at 4 C, 4 washes with RIPA buffer; Western blot for SOCS6

| binding [1] | binding [2] | Molecule |
| --- | --- | --- |
| binds | – | stem cell factor receptor c-Kit (from UniProt P10721 26-976) |
| – | binds | suppressor of cytokine signaling 6 (SOCS6) (protein, UniProt O14544 1-535) MKKISLKTLRKSFNLNKSKEETDFMVVQQPSLASDFGKDDSLFGSCYGKDMASCDINGEDEKGGKNRSKSESLMGTLKRRLSAKQKSKGKAGTPSGSSADEDTFSSSSAPIVFKDVRAQRPIRSTSLRSHHYSPAPWPLRPTNSEETCIKMEVRVKALVHSSSPSPALNGVRKDFHDLQSETTCQEQANSLKSSASHNGDLHLHLDEHVPVVIGLMPQDYIQYTVPLDEGMYPLEGSRSYCLDSSSPMEVSAVPPQVGGRAFPEDESQVDQDLVVAPEIFVDQSVNGLLIGTTGVMLQSPRAGHDDVPPLSPLLPPMQNNQIQRNFSGLTGTEAHVAESMRCHLNFDPNSAPGVARVYDSVQSSGPMVVTSLTEELKKLAKQGWYWGPITRWEAEGKLANVPDGSFLVRDSSDDRYLLSLSFRSHGKTLHTRIEHSNGRFSFYEQPDVEGHTSIVDLIEHSIRDSENGAFCYSRSRLPGSATYPVRLTNPVSRFMQVRSLQYLCRFVIRQYTRIDLIQKLPLPNKMKDYLQEKHY |
